Results are given in words; binding and its absence hold for the method and conditions named.
Columns and labels:
Experiment in all cases: BLI + other: solid-phase binding assay; Supplementary Fig. 3; which of the two methods was used for which receptor is not told in the text shown
[1] = target: UNC5D ectodomain
[2] = target: UNC5C ectodomain
[3] = target: UNC5A ectodomain

- binding [1]: no binding
- binding [2]: no binding
- binding [3]: no binding
B1: full-length Net4 (Net4-FL) (natural protein, Mus musculus, UniProt Q9JI33 20-628, looked up)
chain: LNGVAGANSRCEKACNPRMGNLALGRKLRADTMCGQNATELFCFYSENADLTCRQPKCDKCNAAHSHLAHPPSAMADSSFRFPRTWWQSAEDVHREKIQLDLEAEFYFTHLIMVFKSPRPAAMVLDRSQDFGKTWKPYKYFATNCSATFGLEDDVVKKGAICTSRYSNPFPCTGGEVIFRALSPPYDIENPYSAKVQEQLKITNLRVRLLKRQSCPCQINDLNAKPHHFMHYAVYDFIVKGSCFCNGHADQCLPVEGFRPIKAPGAFHVVHGRCMCKHNTAGSHCQHCAPLYNDRPWEAADGRTGAPNECRTCKCNGHADTCHFDVNVWEASGNRSGGVCNNCQHNTEGQHCQRCKPGFYRDLRRPFSAPDACKACSCHPVGSAILPFSSVTFCDPSNGDCPCKPGVAGPHCDRCMVGYWGFGDYGCRPCDCAGSCDPLTGDCISSNADVDWYHEVPAFHSMHNKSEPSWEWEDEQGFSALRHSGKCECKEQVLGNPKAFCGMKYSYVLKIKILSAHDKGSHAEVNVKIKKVLKSTKLKILRGKRTLYPESWTNRGCTCPILNPGLEYLVAGHEDVRTGKLIVNMKSFVQHWKPALGRRVMHILKRDCV
notes: also called netrin-4; wild-type Net4; source: HEK293, stably transfected, purified (streptactin-sepharose, thrombin digestion, SEC); not shown: double Strep II, N-terminal, cleaved

Reference: publication PMC5141367, “Structural decoding of netrin-4 reveals a regulatory function towards mature basement membranes” (Nature Communications, 2016)
